# Test results as given in the supplement of paper PMC8728848.
# Some of the results follow.
# What was measured:
# Assay in all cases: glycan array binding signal (z-score within array); higher = stronger binding
# Conditions in all cases: glycan notation: IUPAC condensed, linker removed
# [1] = target: Gal(b1-3)[Neu5Ac(a2-6)]GalNAc
# In short: (§1)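 Negative Z-scores can be read as non-binding. The Z-score is calculated within each array and then averaged across arrays of one protein sequence at different concentrations or buffers and across linkers. Arrays, 3228 in all, were curated from the Consortium for Functional Glycomics database and kept only where the protein sequence was available.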
# [2] = target: Gal(b1-3)[Neu5Ac(a2-6)]GlcNAc(b1-6)Gal(b1-4)Glc
# In short: as §1
# [3] = target: Gal(b1-3)[Neu5Ac(b2-6)]GalNAc
# In short: as §1
# [4] = target: Gal(b1-4)GalNAc(a1-3)[Fuc(a1-2)]Gal(b1-4)GlcNAc
# In short: as §1
# [5] = target: Gal(b1-4)GalNAc(b1-3)[Fuc(a1-2)]Gal(b1-4)GlcNAc
# In short: as §1
# Gal(b1-4)Glc = target: Gal(b1-4)Glc
# In short: as §1
# Gal(b1-4)Glc6S = target: Gal(b1-4)Glc6S
# In short: as §1
# Gal(b1-4)GlcNAc = target: Gal(b1-4)GlcNAc
# In short: as §1
# [6] = target: Gal(b1-4)GlcNAc(a1-6)Gal(b1-4)GlcNAc
# In short: as §1
# [7] = target: Gal(b1-4)GlcNAc(b1-2)Man(a1-3)Man(b1-4)GlcNAc(b1-4)GlcNAc
# In short: as §1
# [8] = target: Gal(b1-4)GlcNAc(b1-2)Man(a1-3)[Gal(b1-4)GlcNAc(b1-2)Man(a1-6)]Man(b1-4)GlcNAc(b1-4)GlcNAc
# In short: as §1
# [9] = target: Gal(b1-4)GlcNAc(b1-2)Man(a1-3)[Gal(b1-4)GlcNAc(b1-2)Man(a1-6)]Man(b1-4)GlcNAc(b1-4)[Fuc(a1-6)]GlcNAc
# In short: as §1
# [10] = target: Gal(b1-4)GlcNAc(b1-2)Man(a1-3)[Man(a1-6)]Man(b1-4)GlcNAc(b1-4)GlcNAc
# In short: as §1
# [11] = target: Gal(b1-4)GlcNAc(b1-2)Man(a1-6)Man(b1-4)GlcNAc(b1-4)GlcNAc
# In short: as §1
# [12] = target: Gal(b1-4)GlcNAc(b1-2)Man(a1-6)[Man(a1-3)]Man(b1-4)GlcNAc(b1-4)GlcNAc
# In short: as §1
# [13] = target: Gal(b1-4)GlcNAc(b1-2)[Gal(b1-4)GlcNAc(b1-4)]Man(a1-3)[Gal(b1-4)GlcNAc(b1-2)Man(a1-6)]Man(b1-4)GlcNAc(b1-4)GlcNAc
# In short: as §1
# [14] = target: Gal(b1-4)GlcNAc(b1-3)Gal(b1-3)GlcNAc
# In short: as §1
# [15] = target: Gal(b1-4)GlcNAc(b1-3)Gal(b1-4)Glc
# In short: as §1
# [16] = target: Gal(b1-4)GlcNAc(b1-3)Gal(b1-4)GlcNAc
# In short: as §1
# [17] = target: Gal(b1-4)GlcNAc(b1-3)Gal(b1-4)GlcNAc(b1-3)Gal(b1-4)GlcNAc
# In short: as §1
# [18] = target: Gal(b1-4)GlcNAc(b1-3)Gal(b1-4)[Fuc(a1-3)]GlcNAc(b1-3)Gal(b1-4)[Fuc(a1-3)]GlcNAc
# In short: as §1
# [19] = target: Gal(b1-4)GlcNAc(b1-3)GalNAc
# In short: as §1
# [20] = target: Gal(b1-4)GlcNAc(b1-3)[Gal(b1-4)GlcNAc(b1-6)]Gal(b1-4)GlcNAc
# In short: as §1
# [21] = target: Gal(b1-4)GlcNAc(b1-3)[GlcNAc(b1-6)]Gal(b1-4)GlcNAc
# In short: as §1
# [22] = target: Gal(b1-4)GlcNAc(b1-6)Gal(b1-4)GlcNAc
# In short: as §1
# [23] = target: Gal(b1-4)GlcNAc(b1-6)Gal(b1-4)GlcNAc(b1-6)GalNAc
# In short: as §1
# [24] = target: Gal(b1-4)GlcNAc(b1-6)GalNAc
# In short: as §1
# [25] = target: Gal(b1-4)GlcNAc(b1-6)[Gal(b1-3)]GalNAc
# In short: as §1
# Gal3S(b1-3)GalNAc = target: Gal3S(b1-3)GalNAc
# In short: as §1
# Gal3S(b1-3)GlcNAc = target: Gal3S(b1-3)GlcNAc
# In short: as §1
# [26] = target: Gal3S(b1-3)[Fuc(a1-4)]GlcNAc
# In short: as §1
# Gal3S(b1-4)Glc = target: Gal3S(b1-4)Glc
# In short: as §1
# Gal3S(b1-4)Glc6S = target: Gal3S(b1-4)Glc6S
# In short: as §1
# Gal3S(b1-4)GlcNAc = target: Gal3S(b1-4)GlcNAc
# In short: as §1
# Gal3S(b1-4)GlcNAc6S = target: Gal3S(b1-4)GlcNAc6S
# In short: as §1
# [27] = target: Gal3S(b1-4)[Fuc(a1-3)]Glc
# In short: as §1
# Gal3S4S(b1-4)GlcNAc = target: Gal3S4S(b1-4)GlcNAc
# In short: as §1
# Gal3S6S(b1-4)GlcNAc = target: Gal3S6S(b1-4)GlcNAc
# In short: as §1
binder,measurement,setting,value
"4F2hc (Homo sapiens), P08195 (protein) WWHTGALYRIGDLQAFQGHGAGNLAGLKGRLDYLSSLKVKGLVLGPIHKNQKDDVAQTDLLQIDPNFGSKEDFDSLLQSAKKKSIRVILDLTPNYRGENSWFSTQVDTVATKVKDALEFWLQAGVDGFQVRDIENLKDASSFLAEWQNITKGFSEDRLLIAGTNSSDLQQILSLLESNKDLLLTSSYLSDSGSTGEHTKSLVTQYLNATGNRWCSWSLSQARLLTSFLPAQLLRLYQLMLFTLPGTPVFSYGDEIGLDAAALPGQPMEAPVMLWDESSFPDIPGAVSANMTVKGQSEDPGSLLSLFRRLSDQRSKERSLLHGDFHAFSAGPGLFSYIRHWDQNERFLVVLNFGDVGLSAGLQASDLPASASLPAKADLLLSTQPGREEGSPLELERLKLEPHEGLLLRFPYAA",glycan array binding signal (z-score),[1],0.104
same,glycan array binding signal (z-score),[2],0.327
same,glycan array binding signal (z-score),[3],0.036
same,glycan array binding signal (z-score),[4],-1.1
same,glycan array binding signal (z-score),[5],0.058
same,glycan array binding signal (z-score),Gal(b1-4)Glc,0.428
same,glycan array binding signal (z-score),Gal(b1-4)Glc6S,-0.496
same,glycan array binding signal (z-score),Gal(b1-4)GlcNAc,-0.318
same,glycan array binding signal (z-score),[6],-0.593
same,glycan array binding signal (z-score),[7],0.986
same,glycan array binding signal (z-score),[8],-0.662
same,glycan array binding signal (z-score),[9],-0.525
same,glycan array binding signal (z-score),[10],-0.077
same,glycan array binding signal (z-score),[11],-0.567
same,glycan array binding signal (z-score),[12],-0.997
same,glycan array binding signal (z-score),[13],0.263
same,glycan array binding signal (z-score),[14],-0.941
same,glycan array binding signal (z-score),[15],-0.257
same,glycan array binding signal (z-score),[16],-0.278
same,glycan array binding signal (z-score),[17],0.458
same,glycan array binding signal (z-score),[18],0.933
same,glycan array binding signal (z-score),[19],1.13
same,glycan array binding signal (z-score),[20],1.39
same,glycan array binding signal (z-score),[21],-0.416
same,glycan array binding signal (z-score),[22],-0.645
same,glycan array binding signal (z-score),[23],-0.288
same,glycan array binding signal (z-score),[24],1.14
same,glycan array binding signal (z-score),[25],-0.748
same,glycan array binding signal (z-score),Gal3S(b1-3)GalNAc,0.107
same,glycan array binding signal (z-score),Gal3S(b1-3)GlcNAc,0.65
same,glycan array binding signal (z-score),[26],-0.207
same,glycan array binding signal (z-score),Gal3S(b1-4)Glc,-0.239
same,glycan array binding signal (z-score),Gal3S(b1-4)Glc6S,-0.163
same,glycan array binding signal (z-score),Gal3S(b1-4)GlcNAc,-0.49
same,glycan array binding signal (z-score),Gal3S(b1-4)GlcNAc6S,-0.477
same,glycan array binding signal (z-score),[27],-0.508
same,glycan array binding signal (z-score),Gal3S4S(b1-4)GlcNAc,3.95
same,glycan array binding signal (z-score),Gal3S6S(b1-4)GlcNAc,0.274

# Fetched one by one from above:
binder,measurement,setting,value
"4F2hc (Homo sapiens), P08195 (protein) WWHTGALYRIGDLQAFQGHGAGNLAGLKGRLDYLSSLKVKGLVLGPIHKNQKDDVAQTDLLQIDPNFGSKEDFDSLLQSAKKKSIRVILDLTPNYRGENSWFSTQVDTVATKVKDALEFWLQAGVDGFQVRDIENLKDASSFLAEWQNITKGFSEDRLLIAGTNSSDLQQILSLLESNKDLLLTSSYLSDSGSTGEHTKSLVTQYLNATGNRWCSWSLSQARLLTSFLPAQLLRLYQLMLFTLPGTPVFSYGDEIGLDAAALPGQPMEAPVMLWDESSFPDIPGAVSANMTVKGQSEDPGSLLSLFRRLSDQRSKERSLLHGDFHAFSAGPGLFSYIRHWDQNERFLVVLNFGDVGLSAGLQASDLPASASLPAKADLLLSTQPGREEGSPLELERLKLEPHEGLLLRFPYAA",glycan array binding signal (z-score),[10],-0.077
same,glycan array binding signal (z-score),Gal3S(b1-4)Glc6S,-0.163
same,glycan array binding signal (z-score),[11],-0.567
